No constants are given. Whether binding was seen depends on the method and setting. Some results given as binding are weak or reduced against the parent protein; the word gives no strength. One block for each binder: values may come before it.
Legend:
[1] = molecular target: recombinant human DLL3 (ELISA coat) (human) (UniProt Q9NYJ7); experiment: ELISA on coated recombinant human DLL3
[2] = molecular target: DLL3 expressed on NCI-H82 cells (human) (UniProt Q9NYJ7); experiment: flow cytometry on NCI-H82 cells, anti-mouse IgG secondary
[3] = molecular target: DLL3 expressed on NCI-H82 cells (human) (UniProt Q9NYJ7); experiment: flow cytometry on NCI-H82 cells, antibody at 2 ug/mL, fluorophore-conjugated anti-mouse IgG secondary
[4] = molecular target: ECD of human DLL3 (Adipogen AG-40B-0151, FLAG-tag) (human) (UniProt Q9NYJ7); experiment: SPR binning (Biacore 8K), 25 C, 2F7 captured on anti-mouse Fc, then DLL3 ECD, then Stemcentrx antibody
[5] = molecular target: ECD of human DLL3 (Adipogen AG-40B-0151, FLAG-tag) (human) (UniProt Q9NYJ7); experiment: SPR (Biacore 8K), 37 C, antibody captured on anti-mouse Fc, hDLL3 ECD injected at several concentrations
[6] = molecular target: DLL3 expressed on NCI-H82 cells (human) (UniProt Q9NYJ7); experiment: flow cytometry on NCI-H82 cells, serial dilution from 2 ug/mL, fluorophore-conjugated anti-mouse IgG secondary, MFI
[7] = molecular target: recombinant human DLL3 (ELISA coat) (human) (UniProt Q9NYJ7); experiment: ELISA, plate coated with recombinant human DLL3 at 0.5 ug/ml, anti-mouse IgG-HRP/TMB, signal as % of positive control max
[8] = molecular target: recombinant His-tagged EGF2-6 domains of human DLL3 (human) (UniProt Q9NYJ7); experiment: SPR, 37 C, His-tagged DLL3 domains
[9] = molecular target: recombinant His-tagged EGF3-6 domains of human DLL3 (human) (UniProt Q9NYJ7); experiment: SPR, 37 C, His-tagged DLL3 domains
[10] = molecular target: recombinant His-tagged EGF4-6 domains of human DLL3 (human) (UniProt Q9NYJ7); experiment: SPR, 37 C, His-tagged DLL3 domains
[11] = molecular target: recombinant His-tagged EGF2-6 domains of human DLL3 (human) (UniProt Q9NYJ7); experiment: SPR (Biacore 8K), 37 C, 5E7 captured on anti-mouse Fc, DLL3 construct injected
[12] = molecular target: recombinant His-tagged EGF3-6 domains of human DLL3 (human) (UniProt Q9NYJ7); experiment: as above
[13] = molecular target: recombinant His-tagged EGF4-6 domains of human DLL3 (human) (UniProt Q9NYJ7); experiment: as above
[14] = molecular target: ECD of human DLL3 (Adipogen AG-40B-0151, FLAG-tag) (human) (UniProt Q9NYJ7); experiment: SPR binning (Biacore 8K), 25 C, 9E6 captured on anti-mouse Fc, then DLL3 ECD, then Stemcentrx antibody

By UniProt entry, the sequences of proteins in these tests, tags left out. Where a name states a change or a piece, a line headed by the entry shows the natural chain unless it says otherwise. Chains listed by the source or under a name are the forms on record and can include a tag or linker. Residues count along the entry.
UniProt Q9NYJ7: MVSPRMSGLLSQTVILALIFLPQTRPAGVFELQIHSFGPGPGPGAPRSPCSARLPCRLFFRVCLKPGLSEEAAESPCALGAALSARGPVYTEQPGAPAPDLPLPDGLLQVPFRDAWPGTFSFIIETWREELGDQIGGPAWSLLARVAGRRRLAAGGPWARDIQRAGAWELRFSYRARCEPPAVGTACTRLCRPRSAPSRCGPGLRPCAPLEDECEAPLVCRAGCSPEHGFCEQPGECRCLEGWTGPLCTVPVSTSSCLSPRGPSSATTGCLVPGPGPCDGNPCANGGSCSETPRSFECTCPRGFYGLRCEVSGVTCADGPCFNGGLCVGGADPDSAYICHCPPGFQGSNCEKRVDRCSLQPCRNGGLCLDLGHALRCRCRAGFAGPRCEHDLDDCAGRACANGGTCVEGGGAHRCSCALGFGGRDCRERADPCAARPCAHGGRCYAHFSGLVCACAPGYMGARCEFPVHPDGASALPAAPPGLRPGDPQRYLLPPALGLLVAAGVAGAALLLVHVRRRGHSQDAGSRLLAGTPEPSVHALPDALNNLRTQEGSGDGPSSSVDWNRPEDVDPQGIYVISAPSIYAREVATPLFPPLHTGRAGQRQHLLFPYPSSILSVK
DLL3 expressed on NCI-H82 cells: residues 27-618 of Q9NYJ7
recombinant human DLL3 (ELISA coat): residues 27-492 of Q9NYJ7
recombinant His-tagged EGF2-6 domains of human DLL3: residues 274-492 of Q9NYJ7
recombinant His-tagged EGF3-6 domains of human DLL3: residues 312-492 of Q9NYJ7
recombinant His-tagged EGF4-6 domains of human DLL3: residues 353-492 of Q9NYJ7

binding [1]: binds
binding [2]: binds
binding [3]: binds
binding [4]: binds
binding [5]: binds
binding [6]: binds
binding [7]: binds
B1: murine anti-DLL3 antibody clone 2F7 (antibody, V domains shown)
VH: QVQLQQSGAELMKPGASVKLSCKATGYTFTGYWIDWIKQRPGHGLEWVGEILPGSDNINYNEKFRGKATFTADTSSNTAYIQLSSLTTEDSAIYFCARCGTGPWFTYWGQGTLVTVSA
VL: NIMMTQSPSSLAVSAGEKVTMSCKSSQSVLYSSNQKNYLAWYQQKPGQSPRLLIYWASTRASGVPDRFTGSGSGTDFTLTITNIQPEDLAVYYCHQFLSSTWTFGGGTKLEIK

binding [8]: binds
binding [9]: binds
binding [10]: binds
binding [11]: binds
binding [12]: binds
binding [13]: binds
B2: murine anti-DLL3 antibody clone 5E7 (antibody, V domains shown)
VH: EVQLQQSGAELVRPGASVKLSCTASGFNIKDDYIHWVKQWPEQGLEWIGWIDSENGDTEYASKFQGKATMTADTSSNTAYLQLSGLTSEDTAVYYCTTSSYYSYDLFVYWGQGTLVTVSA
VL: DVLMTQTPLTLSVPIGQPASISCKSSQSLLHSNGKTYLNWLLQRPGQSPKLLIYLVSKLESGVPDRFSGSGSGTDFTLKISRVEAEDLGVYYCLQTTHLYTFGGGTKLEIK
notes: Mouse hybridoma antibody, captured by anti-mouse Fc; also called m5E7; murine 5E7

binding [1]: binds
binding [2]: binds
binding [3]: binds
binding [14]: binds
binding [5]: binds
binding [6]: binds
binding [7]: binds
B3: murine anti-DLL3 antibody clone 9E6 (antibody, V domains shown)
VH: QLQLVQSGPELMRPGETVKISCKASGYTFTTYGMNWVKQAPGKGLKWVGWINTYSGVPTYADDFKGRFAFSLESSASTAFLQINNLKDEDTATYFCARFGNYGFDCWGQGTTLTVSS
VL: DIVMTQSPSSLSVSAGEKVTMSCKSSQSLLNSGNQKNYLAWYQQKPGQPPKLLIYGASTRESGVPDRFTGSGSGTDFTLTISSVQAEDLAVYYCQNDHIYPYTFGGGTKLEIK

binding [1]: binds
binding [2]: binds
binding [3]: binds
binding [6]: binds
binding [7]: binds
B4: murine anti-DLL3 antibody clone 10F5 (antibody, V domains shown)
VH: B3 VH
VL: B3 VL

Reference: patent US20220025037A1 (DRAGONFLY THERAPEUTICS, published 2022)
